This is one part of the list. These are further read-outs of the screen, such as a control signal, another cell line or another target. No call is given for them. Most of these compounds were active or inconclusive in the main read-out, so they are no random draw. Potencies come from curve fits of mixed quality, noted in brackets.
Experiment: qHTS Assay for Lipid Storage Modulators in Drosophila S3 Cells;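 on cell number change: cells counted by Cell Tracker Red CMTPX staining in the red channel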
Conditions: BODIPY lipid droplet fluorescence, 18-24 h; for cell number change: measured here: cell count max response, cells fed with added oleic acid
How it was run: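 Laser-scanning cytometry quantifies lipid droplet accumulation (500–530 nm total intensity; droplet/cell object ratio) in oleic acid-fed (400 uM added) Drosophila S3 cells treated with a concentration series. 20 uM Triacsin C defined 100% inhibition.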

[1] = measured here: cell number channel AC50, cells fed with added oleic acid
[2] = measured here: lipid fluorescence (Fed channel) AC50, cells fed with added oleic acid

COc1ccc(CC2c3cc(OC)c(OC)cc3CCN2C)cc1O (stereo unspecified)
cell number change: 31.7% | AC50 [1]: 32.6 µM [rising, single point]

CC(C)c1cccc(O)c(=O)c1
AC50 [1]: 1.84 µM [falling, partial curve]

N#CC(C#N)=Cc1ccc(-c2ccccc2)o1
cell number change: -14.1%

COc1ccc(CN2C(=O)CC(=O)NC2=O)cc1
cell number change: -0.105%

CN1CCCC(C(O)(c2ccccc2)c2ccccc2)C1 (stereo unspecified)
cell number change: 27.6% | AC50 [1]: 0.411 µM [rising, partial curve, poor fit]

Cc1cc(/C=C2\C(=O)NC(=O)N(c3ccc(Cl)cc3)C2=O)c(C)n1-c1cccc(C(=O)O)c1
cell number change: 32.6% | AC50 [1]: 25.9 µM [rising, partial curve, poor fit] | AC50 [2]: 32.6 µM [rising, single point]

CCOc1ccc(CC2(CCc3ccncc3)C(=O)NC(=O)NC2=O)cc1
cell number change: 55.4% | AC50 [1]: 20.6 µM [rising, partial curve, poor fit]

Cc1cc([P+](=O)O)c(C)n1-c1ccc(Br)cc1
cell number change: -0.0764% | AC50 [2]: 0.461 µM [falling, full curve]

CCOc1cccc(CNC2CN3CCC2CC3)c1 (stereo unspecified)
cell number change: 18.4% | AC50 [2]: 7.31 µM [falling, partial curve]

O=C1C2CCCN2C(c2cccs2)N1c1ccccn1 (stereo unspecified)
cell number change: 24.5% | AC50 [2]: 9.2 µM [rising, partial curve, poor fit]

COc1cc(CN2CCNCC2)cc(OC)c1OC
cell number change: 9.33% | AC50 [2]: 0.164 µM [rising, full curve, poor fit]

Cc1nc2ccccc2c(=O)n1-c1ccc([N+](=O)[O-])cc1
cell number change: -17.3% | AC50 [2]: 5.8 µM [rising, single point]

CCN(CC)CCCN=Cc1c(O)n(-c2cccc(C)c2C)c(=O)[nH]c1=O
cell number change: -1.38% | AC50 [2]: 16.4 µM [falling, single point]

Cc1cc(OCC(=O)NCc2ccc(S(N)(=O)=O)cc2)c2c3c(c(=O)oc2c1)CCC3
cell number change: 3.67% | AC50 [2]: 5.17 µM [falling, full curve]

CC(C)[C@]12O[C@H]1[C@@H]1O[C@]13[C@]1(O[C@H]1C[C@H]1C4=C(CC[C@@]13C)C(=O)OC4)[C@@H]2O
cell number change: -38.7% | AC50 [1]: 0.82 µM [falling, full curve] | AC50 [2]: 0.651 µM [falling, full curve]

CCN(CC)P(c1n(C)cc[n+]1C)N(CC)CC
cell number change: -17.5%

COc1ccccc1CCNC(=O)CCn1c(=O)oc2ccccc21
AC50 [1]: 32.6 µM [rising, single point]

C/C(=N\NC(=O)c1ccccc1O)c1c(O)n(Cc2ccccc2)c(=O)[nH]c1=O
cell number change: -12% | AC50 [2]: 0.082 µM [falling, full curve, poor fit]

Cc1cc(N2C(=O)C3CCCN3C2c2sccc2C)no1 (stereo unspecified)
cell number change: 7.46% | AC50 [2]: 0.00461 µM [falling, full curve, poor fit]

C/C(=N\N=C(N)N)c1ccccc1
cell number change: 17.1% | AC50 [1]: 0.517 µM [rising, full curve, poor fit]

N=C1c2ccccc2CN1NC(=O)c1ccccc1
AC50 [1]: 2.06 µM [falling, partial curve]

CC(=O)c1cccc(NC(=O)N2C[C@H]3C[C@@H](C2)c2cccc(=O)n2C3)c1
cell number change: 23.4% | AC50 [2]: 29.1 µM [rising, single point]

O=c1cccc2n1CC1CNC[C@H]2C1
cell number change: -30.7% | AC50 [1]: 0.206 µM [falling, full curve] | AC50 [2]: 0.206 µM [falling, full curve]

CC1=CC(=Cc2sc3ccccc3[n+]2C)C=C(C)O1
cell number change: -57.4% | AC50 [1]: 5.17 µM [falling, partial curve, poor fit] | AC50 [2]: 8.2 µM [falling, partial curve]

O=P(OC1CCS(=O)(=O)C1)(c1ccccc1)c1ccccc1 (stereo unspecified)
AC50 [1]: 0.517 µM [falling, full curve, poor fit]

COc1cccc(C2(O)CCN(CC(=O)Nc3nc(C)cs3)CC2)c1
cell number change: -4.6%

Cc1ncc(CN2CCCC(C(=O)c3cccc(OC(C)C)c3)C2)s1 (stereo unspecified)
cell number change: -0.358% | AC50 [2]: 0.517 µM [falling, single point]

Nc1ccc(Br)cc1C(=O)c1ccccc1
cell number change: -21.7% | AC50 [2]: 7.31 µM [falling, partial curve, poor fit]

CC1N(O)C2CCCCCC2N1O (stereo unspecified)
cell number change: -35.1% | AC50 [1]: 6.51 µM [falling, full curve, poor fit] | AC50 [2]: 5.8 µM [falling, full curve]

CCn1c(=O)cc(OCC(=O)N2CCC3(CC2)OCCO3)c2ccccc21
cell number change: -1.29% | AC50 [2]: 3.26 µM [rising, single point]

Cc1cc(OCc2ccc([N+](=O)[O-])cc2)c2c3c(c(=O)oc2c1)CCCC3
cell number change: -5.2%

O=C(Nc1ccccc1)c1cc([N+](=O)[O-])ccc1N1CCNCC1
cell number change: 37.7% | AC50 [1]: 13 µM [rising, partial curve, poor fit] | AC50 [2]: 3.26 µM [rising, full curve, poor fit]

N/C(=N\[N+](=O)[O-])N/N=C/c1ccc(O)cc1
cell number change: -0.287% | AC50 [1]: 2.06 µM [rising, partial curve]

Clc1ccccc1CN1CCN(c2ccccc2Cl)CC1
cell number change: 120% | AC50 [1]: 25.9 µM [rising, partial curve] | AC50 [2]: 2.31 µM [rising, partial curve]

COc1ccc(NC(=O)c2cc([N+](=O)[O-])ccc2N2CCNCC2)cc1
cell number change: 2.33%

COC(=O)C1=C(c2ccc3ccccc3c2)C[C@@H]2CC[C@H]1N2C(=O)NCCNC(C)=O
cell number change: 6.98% | AC50 [2]: 0.82 µM [falling, full curve, poor fit]

COC(=O)C1=C(c2ccccc2OCc2ccccc2)C[C@@H]2CC[C@H]1N2C(=O)NCc1ccc(C(F)(F)F)cc1
cell number change: -7.44% | AC50 [2]: 25.9 µM [falling, single point]

CCOc1cc(/C=C2\C(=O)NC(=O)N(C)C2=O)cc([N+](=O)[O-])c1O
cell number change: 4.76% | AC50 [2]: 0.146 µM [falling, full curve]

O=C1CN(O)C(c2ccccc2)=c2cc(Cl)ccc2=N1
cell number change: 32.3% | AC50 [1]: 2.59 µM [rising, partial curve, poor fit] | AC50 [2]: 0.58 µM [falling, full curve, poor fit]

NCC1(c2ccc3c(c2)OCCO3)CCCC1
cell number change: 9.79% | AC50 [2]: 0.00461 µM [rising, full curve, poor fit]

CCN1C[C@]2(COC(=O)c3ccccc3N)CC[C@H](OC)C34[C@@H]5C[C@H]6[C@H](OC)[C@@H]5[C@](O)(C[C@@H]6OC)[C@@](O)([C@H]13)[C@@H](OC)[C@@H]42
cell number change: 12.5% | AC50 [1]: 4.11 µM [rising, single point] | AC50 [2]: 6.51 µM [falling, single point]

COC(=O)C1=C(c2ccc(-c3ccccc3)c(F)c2)C[C@@H]2CC[C@H]1N2C(=O)NCc1cccc2ccccc12
cell number change: -23.8%

O=C(COc1ccc(Cl)cc1)N1CCN(Cc2ccccc2)CC1
AC50 [2]: 0.00517 µM [rising, full curve, poor fit]

COC(=O)C1=C(c2ccccc2OCc2ccccc2)C[C@@H]2CC[C@H]1N2C(=O)NCc1ccc(F)cc1
cell number change: 0.0614% | AC50 [2]: 5.17 µM [falling, full curve, poor fit]

O=c1[nH]c(O)c(C=NC2CCN(Cc3ccccc3)CC2)c(=O)[nH]1
cell number change: 31.9% | AC50 [1]: 16.4 µM [rising, single point]

COc1ccc(C(=O)C2CN(C)CC2C(=O)c2ccc(OC)cc2)cc1 (stereo unspecified)
cell number change: -20.7% | AC50 [2]: 13 µM [falling, partial curve, poor fit]

C=CCN1C(=O)/C(=C/c2ccc(Br)s2)C(=O)NC1=S
cell number change: 0.88% | AC50 [2]: 9.2 µM [falling, single point]

CN(C)C(=O)OCc1n(C)cc[n+]1C
cell number change: -27.6% | AC50 [1]: 0.58 µM [falling, full curve, poor fit] | AC50 [2]: 0.731 µM [falling, full curve]

Cc1sc2ncn(CC(=O)NCC(=O)N3CCC4(CC3)OCCO4)c(=O)c2c1C
cell number change: -10.5% | AC50 [1]: 0.517 µM [falling, full curve]

COCCOC(=O)C1=C(N)OC(C)=C(C(=O)OC)C12C(=O)Nc1ccccc12 (stereo unspecified)
cell number change: 0.988% | AC50 [2]: 25.9 µM [falling, single point]

CCn1c(O)c(N=Nc2cccc(S(=O)(=O)N3CCOCC3)c2)c(=O)n(CC)c1=S
cell number change: -11.5% | AC50 [2]: 0.651 µM [falling, single point]

Cc1ccc(-n2c(O)c(C=Nc3ccc(S(N)(=O)=O)cc3)c(=O)[nH]c2=O)cc1
cell number change: -40.9% | AC50 [1]: 29.1 µM [falling, single point] | AC50 [2]: 1.46 µM [falling, partial curve]

CN(C)CC1CSCCC1(O)c1ccc(C(F)(F)F)cc1 (stereo unspecified)
cell number change: -10.9% | AC50 [2]: 23.1 µM [rising, partial curve, poor fit]

CCC(=NCc1ccco1)c1c(O)n(C2CCCCC2)c(=O)[nH]c1=O
cell number change: 44.6% | AC50 [1]: 29.1 µM [rising, single point] | AC50 [2]: 3.66 µM [rising, single point]

CCOc1ccc(N2C(=O)CC(=O)NC2=O)cc1
cell number change: 1.82%

O=C(OCC(=O)c1ccc([N+](=O)[O-])cc1)/C(=C/c1ccc(Cl)cc1)NC(=O)c1ccccc1
cell number change: -3.3% | AC50 [2]: 25.9 µM [falling, single point]

OC(COCc1ccc(Cl)cc1)CN1CC=C(c2ccccc2)CC1 (stereo unspecified)
cell number change: -31.5% | AC50 [1]: 29.1 µM [falling, single point] | AC50 [2]: 8.2 µM [falling, partial curve]

ClC(Cl)=C(c1ccc(Cl)cc1)c1ccc(Cl)cc1
cell number change: 14.3% | AC50 [2]: 14.6 µM [rising, partial curve]

From PubChem BioAssay AID2685 (National Center for Advancing Translational Sciences (NCATS), 2010)
